AC50 data for 17 compounds are collected here from PubChem BioAssay AID493014 (National Center for Advancing Translational Sciences (NCATS), 2011).

Some of the results follow. The main result of the screen is listed elsewhere. These columns were measured beside it and carry no call. Most of these compounds were active or inconclusive in the main read-out, so they are no random draw. Words in brackets tell the shape of the fitted curve; partial curves, single points and poor fits give uncertain potencies.

This assay can be described thus: qHTS Assay to Find Inhibitors of Chronic Active B-Cell Receptor Signaling. The note with it: ABC-DLBCL IkBa-CBG/CBR reporter, luminescence ratio (green luciferase fused to IkBa over red control in TMD8 lymphoma cells), 4 h; measured here: CBR red luminescence, cell number. In short, it runs like this: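 Doxycycline induced both beetle luciferases in TMD8 lymphoma cells; IKK-driven degradation limits the IkappaBalpha-fused green signal, while red luminescence normalises for cell number and nonspecific effects. Compounds tested up to 46 uM, 4 hrs.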
Background: qHTS replaces the single test concentration by a dilution series.
For `C=CCOc1ccccc1CNn1nnnc1N`, the AC50 (in general, the midpoint of the concentration-response curve, whichever way the signal moves) is 18.4 µM [falling, partial curve, poor fit]. As to `Cc1c(OCC(=O)N(C)C)ccc2c(-c3ccccc3)cc(=O)oc12`, the AC50 is 6.31 µM [rising, partial curve, poor fit]. Next, `COc1cccc(N2CCN(C(=O)CCC(=O)N3CCOc4ccc(C)cc43)CC2)c1`: 2.82 µM [rising, partial curve, poor fit]; `COc1ccc(NC(=O)CN(C)C(=O)CNC(=O)C2CCCCC2)cc1`: 35.5 µM [rising, partial curve, poor fit]. Next, `COc1ccc(C(=O)C2CCCN(Cc3ccc4nonc4c3)C2)cc1OC` (configuration not stated): 1.41 µM [falling, full curve, poor fit]; `O=C(NCc1n[nH]c(=S)n1-c1cccc(Cl)c1)c1cccs1`: 35.5 µM [rising, single point]; `COc1cc(NC(=O)CC2C(=O)N(c3ccccc3)C(=O)N2Cc2ccc(F)cc2)cc(OC)c1` (configuration not stated): 2 µM [rising, full curve].

Turning to `C[C@@H]1CN([C@H](C)CO)C(=O)Cc2cc(NC(=O)Nc3ccccc3)ccc2O[C@@H]1CN(C)C(=O)Nc1ccc2c(c1)OCO2`, the AC50 is 29.1 µM [rising, partial curve, poor fit]. As to `O=C(N/N=C/C1CCCCC1)c1ccccn1`, the AC50 was 35.5 µM [falling, single point]. Next, `COc1ccc(CN(C)CC(O)COC(c2ccc(OC)cc2)c2ccc(OC)cc2)cc1` (configuration not stated): 35.5 µM [falling, single point]; `CCOc1cc(C2C(C(=O)N3CCOCC3)=C(C)NC3=C2C(=O)CCC3)ccc1O` (configuration not stated): 4.61 µM [rising, single point]; `c1ccc2c(-c3nc(C4CCCCC4)no3)cc(-c3ccncc3)nc2c1`: 25.9 µM [rising, partial curve, poor fit]. With `Cc1cccc(NC(=S)NCC(C)CSc2ccc(Cl)cc2)c1` (configuration not stated), the AC50 was 35.5 µM [falling, single point]. Regarding `COc1ccc(OC)c(NC(=O)CSc2nc(=O)n(CCN(C)C)c3c2CCC3)c1`, the AC50 was 25.1 µM [falling, single point].

On to `CN(C)S(=O)(=O)c1cccc(NC(=O)COc2cccc(C#N)c2)c1`, for which the AC50 is 6.51 µM [falling, partial curve, poor fit]. The same measure for `CCCCNC(=O)C1CCCN(S(=O)(=O)c2c(C)noc2/C=C/c2cccs2)C1` (configuration not stated): 12.6 µM [rising, partial curve, poor fit]; for `COc1ccccc1C(C)NCC(=O)Nc1c(F)cccc1F` (configuration not stated): 3.98 µM [falling, partial curve, poor fit].
